Consider one substance from patent US20040038338A1, “Influence of LRP cytoplasmic domain on Abeta production” (priority 2001, published 2004).

Sequences of proteins named here, by UniProt entry; tags and fusion partners are left off. Residues count along the entry.
UniProt Q07954, residues 4445-4544: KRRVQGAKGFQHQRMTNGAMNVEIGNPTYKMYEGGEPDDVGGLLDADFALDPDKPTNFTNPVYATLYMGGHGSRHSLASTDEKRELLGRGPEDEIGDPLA

Results are given in words; binding and its absence hold for the method and conditions named. Some binding calls cover weakened binding; strength is not graded here.

The test deals with T1, Fe65 (UniProt O00213).
T1 sequence (looked up): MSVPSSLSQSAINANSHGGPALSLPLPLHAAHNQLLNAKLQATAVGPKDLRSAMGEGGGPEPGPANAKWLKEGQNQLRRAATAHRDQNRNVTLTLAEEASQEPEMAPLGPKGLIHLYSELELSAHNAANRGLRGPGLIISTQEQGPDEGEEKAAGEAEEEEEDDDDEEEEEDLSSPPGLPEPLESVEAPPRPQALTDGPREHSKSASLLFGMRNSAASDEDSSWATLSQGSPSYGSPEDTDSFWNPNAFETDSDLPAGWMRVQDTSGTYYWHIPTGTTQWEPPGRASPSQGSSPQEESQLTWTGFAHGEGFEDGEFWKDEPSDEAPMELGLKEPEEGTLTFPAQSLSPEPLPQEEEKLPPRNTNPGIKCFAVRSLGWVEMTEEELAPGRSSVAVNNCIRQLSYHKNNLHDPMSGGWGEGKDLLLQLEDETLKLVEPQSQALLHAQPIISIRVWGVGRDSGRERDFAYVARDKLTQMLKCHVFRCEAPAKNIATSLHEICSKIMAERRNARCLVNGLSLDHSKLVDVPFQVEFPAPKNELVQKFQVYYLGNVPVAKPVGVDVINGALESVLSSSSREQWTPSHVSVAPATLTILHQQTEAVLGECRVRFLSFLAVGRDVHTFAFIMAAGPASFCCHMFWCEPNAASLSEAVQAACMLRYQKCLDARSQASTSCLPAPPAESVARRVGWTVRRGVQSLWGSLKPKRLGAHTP
The experiment in a line: GST pull down of in vitro translated Fe65; wild type tail is the reference.

On to “GST fusion protein encoding the last 100 amino acids of LRP (entire cytoplasmic tail), wild type (from UniProt Q07954 4445-4544)”, for which the binding result was “binds”.
